Experimental data published in PMC9346556.

Chains of the proteins cited; added tags and fusions are not shown. Lines headed by an entry give the natural chain unless they say otherwise; changes in a name come on top.
UniProt A0A509AG56: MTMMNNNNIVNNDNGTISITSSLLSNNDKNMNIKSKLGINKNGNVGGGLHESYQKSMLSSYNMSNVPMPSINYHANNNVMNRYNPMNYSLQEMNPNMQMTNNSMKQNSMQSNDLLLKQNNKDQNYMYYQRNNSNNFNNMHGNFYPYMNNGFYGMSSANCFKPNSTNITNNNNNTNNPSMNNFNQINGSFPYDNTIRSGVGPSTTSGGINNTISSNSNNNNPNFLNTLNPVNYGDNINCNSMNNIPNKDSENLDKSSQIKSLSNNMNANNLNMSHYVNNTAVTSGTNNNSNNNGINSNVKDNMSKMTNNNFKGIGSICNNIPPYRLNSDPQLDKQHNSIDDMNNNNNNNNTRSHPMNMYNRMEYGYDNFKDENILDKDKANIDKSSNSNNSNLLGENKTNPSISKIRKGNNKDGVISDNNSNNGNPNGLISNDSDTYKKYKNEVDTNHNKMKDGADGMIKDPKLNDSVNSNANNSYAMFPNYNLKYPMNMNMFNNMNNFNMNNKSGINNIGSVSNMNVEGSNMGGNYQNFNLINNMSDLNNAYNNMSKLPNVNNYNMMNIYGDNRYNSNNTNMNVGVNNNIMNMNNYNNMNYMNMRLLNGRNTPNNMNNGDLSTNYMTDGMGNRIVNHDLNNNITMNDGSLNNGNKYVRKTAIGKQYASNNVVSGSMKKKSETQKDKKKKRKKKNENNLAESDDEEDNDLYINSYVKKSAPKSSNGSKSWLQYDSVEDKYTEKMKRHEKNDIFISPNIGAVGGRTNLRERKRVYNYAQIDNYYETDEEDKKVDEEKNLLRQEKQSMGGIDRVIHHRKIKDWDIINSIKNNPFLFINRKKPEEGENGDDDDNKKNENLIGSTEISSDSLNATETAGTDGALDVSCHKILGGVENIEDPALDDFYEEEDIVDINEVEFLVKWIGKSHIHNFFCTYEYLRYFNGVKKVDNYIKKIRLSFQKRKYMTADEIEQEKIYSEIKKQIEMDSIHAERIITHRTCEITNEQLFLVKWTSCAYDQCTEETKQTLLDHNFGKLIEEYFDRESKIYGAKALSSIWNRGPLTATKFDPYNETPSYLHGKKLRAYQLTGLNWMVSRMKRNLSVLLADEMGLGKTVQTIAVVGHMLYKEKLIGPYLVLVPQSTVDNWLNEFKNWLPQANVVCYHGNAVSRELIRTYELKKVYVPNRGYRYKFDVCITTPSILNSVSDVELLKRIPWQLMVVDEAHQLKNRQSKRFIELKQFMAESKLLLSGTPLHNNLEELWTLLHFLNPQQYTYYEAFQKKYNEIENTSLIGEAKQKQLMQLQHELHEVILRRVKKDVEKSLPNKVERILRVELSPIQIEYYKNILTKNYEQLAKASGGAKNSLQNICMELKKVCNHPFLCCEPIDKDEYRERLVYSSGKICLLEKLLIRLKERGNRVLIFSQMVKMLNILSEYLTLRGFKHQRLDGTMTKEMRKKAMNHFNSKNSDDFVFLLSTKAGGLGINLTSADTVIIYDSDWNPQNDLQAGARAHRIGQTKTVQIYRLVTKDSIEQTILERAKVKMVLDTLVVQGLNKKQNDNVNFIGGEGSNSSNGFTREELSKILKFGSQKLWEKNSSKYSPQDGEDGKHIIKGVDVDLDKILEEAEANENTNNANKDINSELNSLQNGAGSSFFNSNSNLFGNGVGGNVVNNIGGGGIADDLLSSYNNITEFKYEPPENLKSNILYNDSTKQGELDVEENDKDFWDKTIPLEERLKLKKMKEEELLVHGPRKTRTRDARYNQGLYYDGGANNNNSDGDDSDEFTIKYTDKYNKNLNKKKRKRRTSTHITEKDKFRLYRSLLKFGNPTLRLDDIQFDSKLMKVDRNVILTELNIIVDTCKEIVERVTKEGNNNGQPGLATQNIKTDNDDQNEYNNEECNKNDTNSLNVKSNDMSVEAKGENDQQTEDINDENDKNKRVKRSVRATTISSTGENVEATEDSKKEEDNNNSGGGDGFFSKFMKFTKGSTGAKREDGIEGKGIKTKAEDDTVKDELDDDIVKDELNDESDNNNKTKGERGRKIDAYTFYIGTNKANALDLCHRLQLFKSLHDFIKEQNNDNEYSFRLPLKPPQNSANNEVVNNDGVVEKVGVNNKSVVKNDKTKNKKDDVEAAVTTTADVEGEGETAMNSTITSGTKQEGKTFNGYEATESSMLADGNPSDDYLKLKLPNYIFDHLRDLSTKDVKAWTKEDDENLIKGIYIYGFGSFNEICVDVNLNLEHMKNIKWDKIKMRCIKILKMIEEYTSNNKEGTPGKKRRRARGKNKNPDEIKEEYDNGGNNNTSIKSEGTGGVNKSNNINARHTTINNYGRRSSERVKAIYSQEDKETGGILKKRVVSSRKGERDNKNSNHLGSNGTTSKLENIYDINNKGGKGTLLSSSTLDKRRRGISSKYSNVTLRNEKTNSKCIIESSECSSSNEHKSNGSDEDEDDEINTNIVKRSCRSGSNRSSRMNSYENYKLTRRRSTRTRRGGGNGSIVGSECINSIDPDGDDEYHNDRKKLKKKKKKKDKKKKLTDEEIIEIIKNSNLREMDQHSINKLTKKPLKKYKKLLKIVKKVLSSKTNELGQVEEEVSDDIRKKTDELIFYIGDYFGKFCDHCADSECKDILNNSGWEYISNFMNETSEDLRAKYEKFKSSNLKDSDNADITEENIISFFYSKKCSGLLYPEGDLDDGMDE
UniProt A0A509AL46: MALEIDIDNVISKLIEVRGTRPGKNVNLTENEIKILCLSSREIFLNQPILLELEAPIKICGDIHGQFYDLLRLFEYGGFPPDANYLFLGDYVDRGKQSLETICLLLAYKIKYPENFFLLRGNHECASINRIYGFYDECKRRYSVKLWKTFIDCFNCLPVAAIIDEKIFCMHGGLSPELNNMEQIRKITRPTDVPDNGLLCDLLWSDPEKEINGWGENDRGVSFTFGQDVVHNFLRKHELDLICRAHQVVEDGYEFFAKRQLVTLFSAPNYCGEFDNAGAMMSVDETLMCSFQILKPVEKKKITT
UniProt A0A509AJP0: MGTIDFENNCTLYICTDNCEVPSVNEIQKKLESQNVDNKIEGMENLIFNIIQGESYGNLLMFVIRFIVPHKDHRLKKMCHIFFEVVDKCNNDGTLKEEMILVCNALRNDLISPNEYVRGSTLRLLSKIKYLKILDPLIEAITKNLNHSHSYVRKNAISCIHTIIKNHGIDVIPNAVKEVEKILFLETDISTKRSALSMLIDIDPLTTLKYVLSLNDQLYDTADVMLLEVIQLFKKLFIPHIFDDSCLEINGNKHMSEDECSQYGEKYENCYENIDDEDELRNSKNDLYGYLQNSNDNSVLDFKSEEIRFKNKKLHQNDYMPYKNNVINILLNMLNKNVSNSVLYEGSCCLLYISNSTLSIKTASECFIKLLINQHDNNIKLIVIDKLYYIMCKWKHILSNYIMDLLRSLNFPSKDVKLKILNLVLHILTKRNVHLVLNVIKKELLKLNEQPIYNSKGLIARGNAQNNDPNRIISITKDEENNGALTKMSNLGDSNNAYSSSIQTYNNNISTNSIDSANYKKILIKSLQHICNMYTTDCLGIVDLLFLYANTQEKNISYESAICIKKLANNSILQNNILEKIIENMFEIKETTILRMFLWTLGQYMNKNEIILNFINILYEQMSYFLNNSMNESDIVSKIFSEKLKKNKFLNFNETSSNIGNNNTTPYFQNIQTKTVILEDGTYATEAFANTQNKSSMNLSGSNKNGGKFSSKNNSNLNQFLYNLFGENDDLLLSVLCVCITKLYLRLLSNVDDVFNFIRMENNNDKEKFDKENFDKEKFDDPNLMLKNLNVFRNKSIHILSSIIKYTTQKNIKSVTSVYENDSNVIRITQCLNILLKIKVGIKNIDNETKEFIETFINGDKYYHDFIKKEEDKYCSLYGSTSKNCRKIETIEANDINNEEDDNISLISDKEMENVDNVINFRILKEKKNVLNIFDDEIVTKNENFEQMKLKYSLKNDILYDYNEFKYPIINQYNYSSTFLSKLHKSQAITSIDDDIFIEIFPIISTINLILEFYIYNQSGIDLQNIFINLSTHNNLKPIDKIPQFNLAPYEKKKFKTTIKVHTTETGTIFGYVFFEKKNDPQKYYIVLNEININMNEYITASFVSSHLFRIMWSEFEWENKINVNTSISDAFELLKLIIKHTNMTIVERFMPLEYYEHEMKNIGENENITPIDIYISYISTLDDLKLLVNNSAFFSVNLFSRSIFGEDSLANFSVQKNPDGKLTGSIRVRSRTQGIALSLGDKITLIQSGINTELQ

How the values were obtained:
[1] = biological target: T1, PbLRR1-mCherry (endogenous PbLRR1 fused to a C-terminal mCherry tag) (P. berghei); test: affinity purification with mass spectrometry; RFP-Trap beads on soluble extracts of activated gametocytes of the PbLRR1-mCherry line, parental wild type as control; three biological replicates; t-test, FDR < 0.01, S0 = 1
T1 sequence: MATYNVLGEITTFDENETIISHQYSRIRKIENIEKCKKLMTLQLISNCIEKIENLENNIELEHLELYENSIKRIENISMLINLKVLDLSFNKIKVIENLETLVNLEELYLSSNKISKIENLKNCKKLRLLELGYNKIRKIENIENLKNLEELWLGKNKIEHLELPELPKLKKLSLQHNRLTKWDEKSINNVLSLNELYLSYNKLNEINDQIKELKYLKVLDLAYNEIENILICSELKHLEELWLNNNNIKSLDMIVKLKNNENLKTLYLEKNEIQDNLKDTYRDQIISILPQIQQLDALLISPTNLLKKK

[2] = biological target: T1, PbLRR1-mCherry (endogenous PbLRR1 fused to a C-terminal mCherry tag) (P. berghei); test: affinity purification with mass spectrometry; RFP-Trap beads on soluble extracts of zygotes of the PbLRR1-mCherry line, parental wild type as control; three biological replicates; t-test, FDR < 0.01, S0 = 1

Row | Substance | binding [1] | binding [2]
1 | PBANKA_0508100 (from UniProt A0A509AG56 1-2673) | binds | 
2 | ISP1 (inner membrane complex protein) | binds | 
3 | PbGEP (Gamete Egress Protein) | binds | 
4 | PP1c protein inhibitor 3 (PbI3) | binds | 
5 | PbPP1c, endogenous (Plasmodium berghei protein phosphatase 1 catalytic subunit) (from UniProt A0A509AL46 1-304) (enzyme) | binds | binds
6 | PBANKA_01014900 (from UniProt A0A509AJP0) | binds | binds

Results are given in words; binding and its absence hold for the method and conditions named. Binding seen in cells or lysates may run through a third protein. A yes stands for co-enrichment or nearness to the bait. Other partners may have been found. Sequences can lack the tags named with a protein.
